Entries after “also recorded” stand apart in the source; their conditions may differ. Read-outs that look alike come from different tables or passages of the source. Part of at least one peptide drawing is inferred or uncertain, most often the ends. Marks after values point to notes of the source that are not given here. No end group written: not given here.
What was measured:
[1] = test system: E. acervulina sporozoites; assay: Scanning electron microscopy of treated sporozoites; type: cell-based, Eimeria acervulina; settings: PW2 1, 10, 50 and 100 ug/ml, 1 hour, 41° C., HSBS
[2] = test system: E. acervulina sporozoites; assay: Calcein leakage assay; type: cell-based, Eimeria acervulina; settings: 100 ug/ml PW2, 1 hour, 37° C.; relative to 0.2% Triton X-100 (100%)
[3] = test system: E. acervulina sporozoites; assay: Sytox Green flow cytometry, membrane permeabilization; type: cell-based, Eimeria acervulina; settings: 100 ug/ml PW2, 15 minutes, 37° C., HSBS
[4] = test system: E. acervulina sporozoites; type: cell-based, Eimeria acervulina; settings: for Number of intracellular sporozoites, Mean number: 41° C., counted in 100 microscopic fields
E. tenella sporozoites [5] = assay: Calcein leakage assay; type: cell-based, Eimeria tenella; settings: 100 ug/ml PW2, 1 hour, 37° C.; relative to 0.2% Triton X-100 (100%)
E. tenella sporozoites [6] = type: cell-based, Eimeria tenella; settings: for Number of intracellular sporozoites, Mean number: 41° C., counted in 100 microscopic fields
E. tenella sporozoites [7] = assay: Sytox Green flow cytometry, membrane permeabilization; type: cell-based, Eimeria tenella; settings: 100 ug/ml PW2, 15 minutes, 37° C., HSBS
[8] = Light scattering, peptide aggregation; type: physicochemical; settings: light scattering in HSBS
[9] = test system: epimastigotes of Trypanosoma cruzi; assay: Calcein leakage assay; type: cell-based; settings: 100 ug/ml PW2, 1 hour, 37° C.; relative to 0.2% Triton X-100 (100%)
[10] = test system: epimastigotes of Crithidia fasciculata; assay: Calcein leakage assay; type: cell-based; settings: 100 ug/ml PW2, 1 hour, 37° C.; relative to 0.2% Triton X-100 (100%)
[11] = test system: Crithidia fasciculata epimastigotes; assay: Sytox Green flow cytometry, membrane permeabilization; type: cell-based; settings: 100 ug/ml PW2, 15 minutes, 37° C., HSBS
Fusarium solani = assay: MIC, liquid growth inhibition, phytopathogenic fungi; type: cell-based; settings: host plant beans
[12] = 1 ug/ml PW2 (lowest concentration)
[13] = higher peptide concentrations (10, 50 and 100 ug/ml)
[14] = sporozoites pre-treated with 1 ug/ml PW2, 1 h
[15] = sporozoites pre-treated with 10 ug/ml PW2, 1 h
[16] = sporozoites pre-treated with 50 ug/ml PW2, 1 h
[17] = sporozoites pre-treated with 100 ug/ml PW2, 1 h

## HPLKQYWWRPSI [PW2, HPLKQYWWRPSI]
[1]
  sporozoite surface damage, scanning electron microscopy: progressive surface damage and cell debris as the concentration of peptide increased
[2]
  calcein leakage: 97.4%
[3]
  percentage of injured cells: 62%
[4]; [12]
  reduction in the number of sporozoites able to invade cell: approximately 70%
[4]; [13]
  Inhibition of cell invasion: about 80%
[4]; [14]
  Number of intracellular sporozoites, Mean number: 35.3^b
[4]; [15]
  Number of intracellular sporozoites, Mean number: 25.8^c
[4]; [16]
  Number of intracellular sporozoites, Mean number: 24.8^c
[4]; [17]
  Number of intracellular sporozoites, Mean number: 24.5^c
E. tenella sporozoites [5]
  calcein leakage: 100%
E. tenella sporozoites [6]; [12]
  reduction in the number of sporozoites able to invade cell: approximately 70%
E. tenella sporozoites [6]; [13]
  Inhibition of cell invasion: ~90%
E. tenella sporozoites [6]; [14]
  Number of intracellular sporozoites, Mean number: 88.8^b
E. tenella sporozoites [6]; [15]
  Number of intracellular sporozoites, Mean number: 84.2^b
E. tenella sporozoites [6]; [16]
  Number of intracellular sporozoites, Mean number: 63.9^b,c
E. tenella sporozoites [6]; [17]
  Number of intracellular sporozoites, Mean number: 36.3^c
E. tenella sporozoites [7]
  percentage of injured cells: 82%
[8]
  concentrations at which self-association of PW2 takes place: 50 to 100 µg/mL
[8]; increasing PW2 concentrations
  concentration at which ability to scatter 500 nm light increases considerably: 100 µg/mL
[9]
  calcein leakage: insignificant effect; also recorded: very low activity
[10]
  calcein leakage: insignificant effect; also recorded: no activity
[11]
  damage after short exposure: not affected
Fusarium solani
  PW2 MIC: 25 to 50 µg/mL

Reference: patent US7550558B2, “Antimicrobial peptides and methods for identifying and using such peptides” (priority 2001, dated 2009)
